Reference: article PMC6821171
Results are given in words; binding and its absence hold for the method and conditions named. Binding seen in cells or lysates may run through a third protein. A yes stands for co-enrichment or nearness to the bait. Other partners may have been found. No binding means not detected with the bait.

Chains of the proteins cited; added tags and fusions are not shown.
UniProt Q9NR30: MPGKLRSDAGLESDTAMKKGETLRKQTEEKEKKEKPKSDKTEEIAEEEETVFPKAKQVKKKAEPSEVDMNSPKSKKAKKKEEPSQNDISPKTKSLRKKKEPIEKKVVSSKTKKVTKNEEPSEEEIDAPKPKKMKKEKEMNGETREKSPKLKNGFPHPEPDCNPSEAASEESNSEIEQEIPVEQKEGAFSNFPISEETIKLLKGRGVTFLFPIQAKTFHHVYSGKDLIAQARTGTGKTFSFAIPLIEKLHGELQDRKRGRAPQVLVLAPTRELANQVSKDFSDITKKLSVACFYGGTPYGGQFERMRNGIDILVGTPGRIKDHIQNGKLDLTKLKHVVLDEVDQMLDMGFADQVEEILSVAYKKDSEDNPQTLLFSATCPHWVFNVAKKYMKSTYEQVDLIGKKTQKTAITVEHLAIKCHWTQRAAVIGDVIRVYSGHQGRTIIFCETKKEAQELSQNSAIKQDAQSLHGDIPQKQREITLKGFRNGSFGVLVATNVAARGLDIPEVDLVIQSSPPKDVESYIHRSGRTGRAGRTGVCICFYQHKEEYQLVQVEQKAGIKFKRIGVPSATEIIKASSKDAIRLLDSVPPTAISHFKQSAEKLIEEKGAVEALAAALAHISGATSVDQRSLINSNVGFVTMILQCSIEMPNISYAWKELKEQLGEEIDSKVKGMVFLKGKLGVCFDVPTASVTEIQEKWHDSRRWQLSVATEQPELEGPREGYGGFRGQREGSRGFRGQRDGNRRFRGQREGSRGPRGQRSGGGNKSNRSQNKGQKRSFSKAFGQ
UniProt P11387: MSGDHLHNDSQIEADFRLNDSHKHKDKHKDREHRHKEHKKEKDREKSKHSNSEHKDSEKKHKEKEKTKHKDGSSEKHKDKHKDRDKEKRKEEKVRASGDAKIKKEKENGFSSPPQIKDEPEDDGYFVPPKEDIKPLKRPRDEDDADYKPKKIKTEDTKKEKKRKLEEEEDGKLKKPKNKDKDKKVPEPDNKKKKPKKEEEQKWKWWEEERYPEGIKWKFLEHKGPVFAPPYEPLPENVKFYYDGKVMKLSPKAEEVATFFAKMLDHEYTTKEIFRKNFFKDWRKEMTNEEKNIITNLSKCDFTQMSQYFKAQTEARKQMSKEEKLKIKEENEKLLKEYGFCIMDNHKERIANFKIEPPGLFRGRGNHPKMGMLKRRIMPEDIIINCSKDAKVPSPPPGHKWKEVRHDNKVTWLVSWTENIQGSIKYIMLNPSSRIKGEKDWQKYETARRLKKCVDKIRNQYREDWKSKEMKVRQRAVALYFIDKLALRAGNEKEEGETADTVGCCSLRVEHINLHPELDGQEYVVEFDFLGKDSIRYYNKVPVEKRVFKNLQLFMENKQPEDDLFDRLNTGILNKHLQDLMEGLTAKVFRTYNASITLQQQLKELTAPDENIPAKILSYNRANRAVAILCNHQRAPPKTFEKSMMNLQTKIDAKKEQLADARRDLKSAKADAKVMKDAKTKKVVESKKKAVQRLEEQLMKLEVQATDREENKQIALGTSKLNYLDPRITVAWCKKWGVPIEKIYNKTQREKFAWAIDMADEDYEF
UniProt Q8IZL8: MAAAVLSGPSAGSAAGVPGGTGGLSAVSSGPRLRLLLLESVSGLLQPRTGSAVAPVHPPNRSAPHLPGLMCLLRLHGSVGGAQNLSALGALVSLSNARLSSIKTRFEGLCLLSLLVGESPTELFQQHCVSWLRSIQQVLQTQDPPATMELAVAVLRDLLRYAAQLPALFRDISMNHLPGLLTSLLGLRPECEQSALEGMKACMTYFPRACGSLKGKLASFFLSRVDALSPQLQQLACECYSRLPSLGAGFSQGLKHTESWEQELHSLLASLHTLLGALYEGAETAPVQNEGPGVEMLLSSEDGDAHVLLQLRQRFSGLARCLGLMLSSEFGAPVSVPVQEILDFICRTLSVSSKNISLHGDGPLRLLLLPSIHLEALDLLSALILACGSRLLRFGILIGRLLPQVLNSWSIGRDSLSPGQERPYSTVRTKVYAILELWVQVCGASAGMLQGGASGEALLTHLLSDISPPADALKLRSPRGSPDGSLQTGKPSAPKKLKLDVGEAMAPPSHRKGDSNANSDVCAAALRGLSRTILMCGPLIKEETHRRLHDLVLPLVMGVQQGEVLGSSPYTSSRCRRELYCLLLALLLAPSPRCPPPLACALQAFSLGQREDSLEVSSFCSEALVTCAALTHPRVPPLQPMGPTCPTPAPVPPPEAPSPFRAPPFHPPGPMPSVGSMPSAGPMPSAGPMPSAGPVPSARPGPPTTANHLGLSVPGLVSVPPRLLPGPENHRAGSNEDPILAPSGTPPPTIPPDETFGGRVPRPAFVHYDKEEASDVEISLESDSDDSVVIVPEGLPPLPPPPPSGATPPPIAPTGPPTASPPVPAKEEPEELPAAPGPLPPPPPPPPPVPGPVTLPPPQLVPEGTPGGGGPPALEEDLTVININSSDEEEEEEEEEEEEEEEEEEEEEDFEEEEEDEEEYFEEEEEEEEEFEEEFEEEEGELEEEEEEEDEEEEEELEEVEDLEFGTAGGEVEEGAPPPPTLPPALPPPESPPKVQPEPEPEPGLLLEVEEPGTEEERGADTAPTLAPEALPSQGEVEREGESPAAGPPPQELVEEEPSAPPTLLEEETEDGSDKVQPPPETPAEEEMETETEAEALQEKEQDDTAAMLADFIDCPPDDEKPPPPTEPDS
UniProt Q9NWH9: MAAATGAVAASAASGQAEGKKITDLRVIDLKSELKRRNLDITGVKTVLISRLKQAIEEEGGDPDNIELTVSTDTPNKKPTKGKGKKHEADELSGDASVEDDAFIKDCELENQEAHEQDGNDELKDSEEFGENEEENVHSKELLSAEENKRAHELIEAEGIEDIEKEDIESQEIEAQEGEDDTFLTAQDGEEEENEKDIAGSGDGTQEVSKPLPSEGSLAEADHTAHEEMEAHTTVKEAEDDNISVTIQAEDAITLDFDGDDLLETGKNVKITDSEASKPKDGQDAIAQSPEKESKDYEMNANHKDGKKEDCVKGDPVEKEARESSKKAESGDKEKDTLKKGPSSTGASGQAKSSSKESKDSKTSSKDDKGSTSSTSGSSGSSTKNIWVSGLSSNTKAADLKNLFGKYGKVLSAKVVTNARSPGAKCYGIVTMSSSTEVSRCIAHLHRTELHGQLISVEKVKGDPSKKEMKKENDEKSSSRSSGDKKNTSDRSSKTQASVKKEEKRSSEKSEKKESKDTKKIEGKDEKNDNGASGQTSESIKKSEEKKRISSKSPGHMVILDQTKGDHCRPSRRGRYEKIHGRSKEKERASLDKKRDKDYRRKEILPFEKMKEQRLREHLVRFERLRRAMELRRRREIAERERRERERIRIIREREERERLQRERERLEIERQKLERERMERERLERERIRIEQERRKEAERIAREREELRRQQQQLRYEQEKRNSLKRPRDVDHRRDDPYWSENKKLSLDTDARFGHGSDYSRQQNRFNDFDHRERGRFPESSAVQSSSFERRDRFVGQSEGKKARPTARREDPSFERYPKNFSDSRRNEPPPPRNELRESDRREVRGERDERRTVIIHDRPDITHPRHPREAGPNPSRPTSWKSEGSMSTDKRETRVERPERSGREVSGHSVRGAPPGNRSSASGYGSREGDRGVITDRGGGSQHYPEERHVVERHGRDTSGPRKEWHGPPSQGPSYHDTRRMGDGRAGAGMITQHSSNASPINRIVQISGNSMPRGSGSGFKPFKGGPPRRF
UniProt Q9UGU0: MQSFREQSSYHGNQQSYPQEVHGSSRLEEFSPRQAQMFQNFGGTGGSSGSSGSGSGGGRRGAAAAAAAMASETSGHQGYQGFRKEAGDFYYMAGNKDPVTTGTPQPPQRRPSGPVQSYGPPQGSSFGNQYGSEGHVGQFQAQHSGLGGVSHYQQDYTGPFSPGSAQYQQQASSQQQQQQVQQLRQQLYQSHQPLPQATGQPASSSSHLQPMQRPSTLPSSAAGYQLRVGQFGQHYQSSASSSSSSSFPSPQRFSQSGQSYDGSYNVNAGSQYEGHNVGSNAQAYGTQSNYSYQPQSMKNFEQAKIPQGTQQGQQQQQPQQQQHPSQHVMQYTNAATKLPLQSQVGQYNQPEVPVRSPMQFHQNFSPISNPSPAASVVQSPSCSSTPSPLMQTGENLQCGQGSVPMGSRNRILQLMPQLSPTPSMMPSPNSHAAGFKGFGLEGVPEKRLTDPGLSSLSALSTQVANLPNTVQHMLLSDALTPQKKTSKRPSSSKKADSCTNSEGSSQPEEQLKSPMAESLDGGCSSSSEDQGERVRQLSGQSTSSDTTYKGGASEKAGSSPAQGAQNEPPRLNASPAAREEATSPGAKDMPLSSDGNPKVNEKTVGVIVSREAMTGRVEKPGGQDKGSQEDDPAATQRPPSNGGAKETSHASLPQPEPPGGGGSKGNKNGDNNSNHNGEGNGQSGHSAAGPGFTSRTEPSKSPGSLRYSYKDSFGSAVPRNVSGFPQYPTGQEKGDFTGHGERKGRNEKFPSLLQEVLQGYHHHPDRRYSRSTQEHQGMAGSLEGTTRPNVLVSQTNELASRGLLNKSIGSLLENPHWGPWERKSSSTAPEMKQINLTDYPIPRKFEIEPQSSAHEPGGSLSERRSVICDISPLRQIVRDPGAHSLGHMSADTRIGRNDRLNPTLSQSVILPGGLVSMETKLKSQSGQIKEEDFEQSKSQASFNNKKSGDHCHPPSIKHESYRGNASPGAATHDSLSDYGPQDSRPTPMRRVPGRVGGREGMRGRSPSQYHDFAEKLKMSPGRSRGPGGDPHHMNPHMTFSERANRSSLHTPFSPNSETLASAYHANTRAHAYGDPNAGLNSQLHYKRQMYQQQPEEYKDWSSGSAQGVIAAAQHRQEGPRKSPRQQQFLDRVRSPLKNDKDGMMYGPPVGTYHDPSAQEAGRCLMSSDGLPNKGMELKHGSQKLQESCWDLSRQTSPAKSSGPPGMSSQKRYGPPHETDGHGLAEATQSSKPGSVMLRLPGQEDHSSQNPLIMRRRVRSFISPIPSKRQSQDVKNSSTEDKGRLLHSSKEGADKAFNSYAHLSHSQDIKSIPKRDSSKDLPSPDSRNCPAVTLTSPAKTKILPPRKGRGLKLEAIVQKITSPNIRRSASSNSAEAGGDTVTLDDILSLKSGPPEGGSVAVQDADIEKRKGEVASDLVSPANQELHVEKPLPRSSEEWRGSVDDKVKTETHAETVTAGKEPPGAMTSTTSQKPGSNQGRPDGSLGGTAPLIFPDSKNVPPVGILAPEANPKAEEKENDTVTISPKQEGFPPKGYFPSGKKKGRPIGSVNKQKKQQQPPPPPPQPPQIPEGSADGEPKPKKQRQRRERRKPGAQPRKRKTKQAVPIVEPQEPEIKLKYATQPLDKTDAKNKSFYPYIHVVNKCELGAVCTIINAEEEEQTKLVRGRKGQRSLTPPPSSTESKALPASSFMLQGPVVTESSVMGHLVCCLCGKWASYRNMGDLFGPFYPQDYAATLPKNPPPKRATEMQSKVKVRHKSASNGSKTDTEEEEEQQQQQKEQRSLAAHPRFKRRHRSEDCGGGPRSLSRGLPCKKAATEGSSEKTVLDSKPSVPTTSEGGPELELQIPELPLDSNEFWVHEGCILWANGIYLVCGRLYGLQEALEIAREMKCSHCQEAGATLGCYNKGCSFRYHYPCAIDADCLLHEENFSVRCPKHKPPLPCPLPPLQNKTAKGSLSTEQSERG
UniProt P13010: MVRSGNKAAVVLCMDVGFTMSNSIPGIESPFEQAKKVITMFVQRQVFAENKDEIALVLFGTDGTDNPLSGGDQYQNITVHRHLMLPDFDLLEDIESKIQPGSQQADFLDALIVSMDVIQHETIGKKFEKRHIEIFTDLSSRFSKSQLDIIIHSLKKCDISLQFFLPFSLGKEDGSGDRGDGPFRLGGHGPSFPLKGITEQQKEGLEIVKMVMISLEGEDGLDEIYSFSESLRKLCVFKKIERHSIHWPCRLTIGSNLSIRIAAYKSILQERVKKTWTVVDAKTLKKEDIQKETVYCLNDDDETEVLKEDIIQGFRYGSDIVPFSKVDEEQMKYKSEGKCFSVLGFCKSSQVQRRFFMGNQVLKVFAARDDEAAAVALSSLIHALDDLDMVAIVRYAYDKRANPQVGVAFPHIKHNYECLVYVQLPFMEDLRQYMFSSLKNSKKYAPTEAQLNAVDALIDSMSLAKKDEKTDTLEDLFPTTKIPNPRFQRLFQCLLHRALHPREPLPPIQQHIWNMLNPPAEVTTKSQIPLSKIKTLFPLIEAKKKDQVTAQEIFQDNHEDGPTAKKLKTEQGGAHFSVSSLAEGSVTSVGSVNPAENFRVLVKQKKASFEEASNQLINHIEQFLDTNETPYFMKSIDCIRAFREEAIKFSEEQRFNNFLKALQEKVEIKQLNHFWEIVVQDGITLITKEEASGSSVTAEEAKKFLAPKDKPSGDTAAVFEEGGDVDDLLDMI

Molecular target: HBF (His6-biotinylation sequence-FLAG tag)-LYAR (human) (UniProt Q9NX58)
Assay: affinity purification with mass spectrometry; HBF-LYAR as bait; sequential two-step pulldown (Ni-NTA pulldown, RNase A treatment, FLAG pulldown) from nuclear extract of HBF-LYAR-TO cells treated with Dox for 24 h; SDS-PAGE, in-gel digestion with trypsin and Lys-C, nano LC-MS/MS; T-REx 293 cells as control

Row | Substance | binding
1 | Bcl-2-associated transcription factor 1 (from UniProt Q9NYF8 1-920) | binds
2 | Bromodomain-containing protein 2 (endogenous) (from UniProt P25440 1-801) | binds
3 | Casein kinase II subunit alpha (from UniProt P19784 1-350) | binds
4 | Casein kinase II subunit beta (from UniProt P67870 1-215) | binds
5 | Cyclin-dependent kinase 11B (from UniProt P21127 1-795) | binds
6 | DDX21 (from UniProt Q9NR30 1-783) | binds
7 | DNA damage-binding protein 1 (from UniProt Q16531 1-1140) | binds
8 | DNA topoisomerase 1 (from UniProt P11387 1-765) | binds
9 | FACT complex subunit SPT16 (from UniProt Q9Y5B9 1-1047) | binds
10 | FACT complex subunit SSRP1 (from UniProt Q08945 1-709) | binds
11 | General transcription factor IIF subunit 1 (from UniProt P35269 1-517) | binds
12 | Proline-, glutamic acid- and leucine-rich protein 1 (from UniProt Q8IZL8 1-1130) | binds
13 | Protein max (from UniProt P61244 1-160) | binds
14 | SAFB-like transcription modulator (from UniProt Q9NWH9 1-1034) | binds
15 | SIRT7 (from UniProt Q9NRC8 1-400) | no binding
16 | Transcription factor 20 (from UniProt Q9UGU0 1-1960) | binds
17 | X-ray repair cross-complementing protein 5 (from UniProt P13010 1-732) | binds
18 | YLP motif-containing protein 1 (from UniProt P49750 1-2146) | binds
19 | histone acetyltransferase GCN5 (from UniProt Q92830 1-837) | no binding
20 | histone acetyltransferase p300 (from UniProt Q09472 1-2414) | no binding
21 | nucleophosmin (from UniProt P06748 1-294) | binds
